Assay results taken from US20100136030A1 (published 2010).
No constants are given. Whether binding was seen depends on the method and setting. Some binding calls cover weakened binding; strength is not graded here.

T1: human OX40 (form used in the assay not stated) (human) (UniProt P43489)
T1 sequence (looked up): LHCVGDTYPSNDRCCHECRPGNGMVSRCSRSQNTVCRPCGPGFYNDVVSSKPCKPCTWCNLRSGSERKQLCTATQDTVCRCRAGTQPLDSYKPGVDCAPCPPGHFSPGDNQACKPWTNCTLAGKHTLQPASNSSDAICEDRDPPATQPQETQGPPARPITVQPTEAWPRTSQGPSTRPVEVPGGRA

B1: humanized anti-OX40 antibody A10(TH)hu336F (antibody, V domains shown)
VH: QVQLVQSGAEVKKPGASVKVSCKASGYTFTSYWMHWVRQAPGQGLEWMGEIHPKSGNSNYNEKFKGRVTMTRDTSTSTVYMELSSLRSEDTAVYYCARGPEYSNFWFAYWGQGTLVTVSS
VL: DIVLTQSPTSLAVSLGQRATISCKASQTVDYDGDSYMHWYQQKPGQPPKLLIYAASNLESGVPDRFSGSGSGTDFTLTISSLQAEDVAVYYCHQSNEDPWTFGQGTKVEIK
notes: also called humanized clone A10(TH)hu336F; 'humanized' A10 molecule
B2: humanized A10 whole antibody F (A10 LC (TH) hu 336 / A10 humanized) (antibody, V domains shown)
VH: B1 VH
VL: B1 VL
notes: also called A10-F; humanized variant A10-F

Legend:
[1] = biological target: T1, human OX40 (form used in the assay not stated) (human); assay: OX40 binding assay of FIG. 13
[2] = biological target: T1, human OX40 (form used in the assay not stated) (human); assay: competition assay of FIG. 15, format not described
[3] = biological target: T1, human OX40 (form used in the assay not stated) (human); assay: OX40 binding titration with OD readout (assay format and form of OX40 not described); x axis 'Log concentration, µg/ml Fab'
[4] = biological target: T1, human OX40 (form used in the assay not stated) (human); assay: competition assay for OX40 with OD readout; x axis 'fold excess competitor' (no concentration unit); labelled or competed species not described
[5] = biological target: human OX40 receptor (CD134), full length, on the cell surface (human) (UniProt P43489); assay: flow cytometry, PE-conjugated A10-F on activated CD4+ T-cells

Row | Binder | binding [1] | binding [2] | binding [3] | binding [4] | binding [5]
1 | B1 | binds | binds | binds | binds | –
2 | B2 | – | – | – | – | binds
